From US8552066B2, “Modified chalcone compounds as antimitotic agents” (Arizona Biomedical Research Commission, priority 2006, dated 2013)

Assay: Reaction of CMAC-1 with thiol nucleophile (NMR study)
Conditions: one equivalent N-acetylcysteamine
Experimental: To probe the reactivity of the α,β-unsaturated thiol ester CMAC-1 with a thiol nucleophile like that of tubulin, an NMR study was carried out. CMAC-1 (7.2 mg/0.7 mL CDCl3) was treated with one equivalent of N-acetylcysteamine (the thiol nucleophile) as a tubulin model compound. […] To deprotonate the neutral thiol and convert it into the thiolate, 0.1 equivalent of a base (DBN, 1,5-diazabicyclo[4.3.0]non-5-ene) was added. Within 10 minutes of addition of DBN, 89% of CMAC-1 had been converted to the product of nucleophilic addition, shown below in Scheme 3, as evidenced by loss of the thiol ester vinyl proton resonances (S—C(═O)—CH═CH—CH3) and an upfield shift of the terminal CH3 signal from δ 1.8 to 1.3 ppm. Two minor products were also observed.

## C/C=C/C(=O)SCC(=O)Oc1cc(/C=C/C(=O)c2cc(OC)c(OC)c(OC)c2)ccc1OC [CMAC-1, 3-[3-(crotonylsulfanylmethylcarbonyloxy)-4-methoxyphenyl]-1-(3,4,5-trimethoxyphenyl)propenone]
0.1 equivalent DBN, CDCl3, within 10 minutes of addition of DBN
  CMAC-1 converted to the product of nucleophilic addition: 89%
CDCl3, no base
  change in NMR spectrum on treatment with thiol nucleophile: no observable change in the NMR spectrum
